Values of other authors, collected in patent US8420624B2, “Methods for treating or preventing symptoms of hormonal variations” (Yung Shin Pharm. Ind. Co., Ltd., priority 2007, dated 2013).
At least one structure is not confirmed: it was looked up by name or label, or the drawing left a doubt. Some entries share one result that the patent states for a list of compounds.

Tested on: hot flashes
Conditions: cited from earlier work

Structure (SMILES)	alleviation of hot flashes (other pilot evaluations, compared with venlafaxine and paroxetine)	hot-flash score reduction (pilot studies)
CN(C)CCCC1(c2ccc(F)cc2)OCc2cc(C#N)ccc21 (centres unmarked) [citalopram]	alleviate hot flashes to a similar degree	–
Fc1ccc([C@@H]2CCNC[C@H]2COc2ccc3c(c2)OCO3)cc1 [paroxetine]	–	55%-75%
